Measured values as given in the supplement of paper PMC10849652.
This is one part of the list.

By UniProt entry, the sequences of proteins in these tests, tags left out. Where a name states a change or a piece, a line headed by the entry shows the natural chain unless it says otherwise.
UniProt Q16204: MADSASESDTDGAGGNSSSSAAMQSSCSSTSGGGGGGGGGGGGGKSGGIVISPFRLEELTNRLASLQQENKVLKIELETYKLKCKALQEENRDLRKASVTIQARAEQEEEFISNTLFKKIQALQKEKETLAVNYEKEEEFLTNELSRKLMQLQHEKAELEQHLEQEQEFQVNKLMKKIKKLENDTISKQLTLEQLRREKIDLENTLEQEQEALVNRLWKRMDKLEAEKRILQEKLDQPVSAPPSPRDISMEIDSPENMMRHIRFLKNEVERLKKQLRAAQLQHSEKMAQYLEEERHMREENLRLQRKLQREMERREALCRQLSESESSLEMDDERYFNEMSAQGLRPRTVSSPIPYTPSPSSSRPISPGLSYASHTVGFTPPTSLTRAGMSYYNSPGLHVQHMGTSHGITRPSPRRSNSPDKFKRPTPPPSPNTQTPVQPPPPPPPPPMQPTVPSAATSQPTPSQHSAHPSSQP
UniProt O95067, whole entry, looked up: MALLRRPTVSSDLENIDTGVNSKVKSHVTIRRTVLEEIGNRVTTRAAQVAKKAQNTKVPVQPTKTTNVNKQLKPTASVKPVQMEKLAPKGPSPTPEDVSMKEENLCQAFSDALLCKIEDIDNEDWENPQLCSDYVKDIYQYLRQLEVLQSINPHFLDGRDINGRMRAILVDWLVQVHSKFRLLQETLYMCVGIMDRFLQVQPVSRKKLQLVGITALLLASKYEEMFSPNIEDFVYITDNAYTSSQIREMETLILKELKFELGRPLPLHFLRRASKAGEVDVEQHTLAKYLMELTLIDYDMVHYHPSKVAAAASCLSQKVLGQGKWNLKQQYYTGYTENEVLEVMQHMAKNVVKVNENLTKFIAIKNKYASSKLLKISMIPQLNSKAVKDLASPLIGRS
UniProt P48643, whole entry, looked up: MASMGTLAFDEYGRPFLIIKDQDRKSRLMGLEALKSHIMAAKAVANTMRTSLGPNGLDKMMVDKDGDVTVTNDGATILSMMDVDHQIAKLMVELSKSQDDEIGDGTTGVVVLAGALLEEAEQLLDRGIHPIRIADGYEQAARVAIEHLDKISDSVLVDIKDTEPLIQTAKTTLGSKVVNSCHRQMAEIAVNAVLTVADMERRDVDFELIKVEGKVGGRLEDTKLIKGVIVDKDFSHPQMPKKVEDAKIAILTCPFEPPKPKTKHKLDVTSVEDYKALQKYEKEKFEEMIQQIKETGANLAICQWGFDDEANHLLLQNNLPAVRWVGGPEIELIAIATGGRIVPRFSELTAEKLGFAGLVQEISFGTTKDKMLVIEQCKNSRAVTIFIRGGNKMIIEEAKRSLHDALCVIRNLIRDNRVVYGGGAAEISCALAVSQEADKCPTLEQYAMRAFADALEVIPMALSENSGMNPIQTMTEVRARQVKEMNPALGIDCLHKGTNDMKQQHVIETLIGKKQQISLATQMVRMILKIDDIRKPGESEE
UniProt P55212: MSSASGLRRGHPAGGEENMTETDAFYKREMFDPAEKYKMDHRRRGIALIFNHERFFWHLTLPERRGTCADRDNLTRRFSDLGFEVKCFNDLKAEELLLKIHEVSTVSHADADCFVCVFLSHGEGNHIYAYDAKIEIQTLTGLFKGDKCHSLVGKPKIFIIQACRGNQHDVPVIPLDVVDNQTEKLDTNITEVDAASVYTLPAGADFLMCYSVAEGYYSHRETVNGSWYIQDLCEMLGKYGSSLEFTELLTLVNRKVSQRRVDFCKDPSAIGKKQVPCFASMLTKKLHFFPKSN
UniProt Q96ER9: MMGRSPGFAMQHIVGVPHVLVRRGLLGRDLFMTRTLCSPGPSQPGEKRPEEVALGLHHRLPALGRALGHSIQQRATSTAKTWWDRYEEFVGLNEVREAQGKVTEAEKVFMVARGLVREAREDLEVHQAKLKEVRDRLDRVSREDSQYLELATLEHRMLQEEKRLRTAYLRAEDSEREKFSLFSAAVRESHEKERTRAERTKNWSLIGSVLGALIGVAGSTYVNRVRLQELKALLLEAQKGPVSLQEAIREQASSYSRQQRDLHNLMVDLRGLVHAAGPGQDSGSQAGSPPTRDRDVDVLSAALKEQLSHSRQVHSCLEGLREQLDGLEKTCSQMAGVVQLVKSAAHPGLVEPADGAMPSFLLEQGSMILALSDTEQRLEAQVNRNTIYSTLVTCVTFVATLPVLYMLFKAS
UniProt Q99832: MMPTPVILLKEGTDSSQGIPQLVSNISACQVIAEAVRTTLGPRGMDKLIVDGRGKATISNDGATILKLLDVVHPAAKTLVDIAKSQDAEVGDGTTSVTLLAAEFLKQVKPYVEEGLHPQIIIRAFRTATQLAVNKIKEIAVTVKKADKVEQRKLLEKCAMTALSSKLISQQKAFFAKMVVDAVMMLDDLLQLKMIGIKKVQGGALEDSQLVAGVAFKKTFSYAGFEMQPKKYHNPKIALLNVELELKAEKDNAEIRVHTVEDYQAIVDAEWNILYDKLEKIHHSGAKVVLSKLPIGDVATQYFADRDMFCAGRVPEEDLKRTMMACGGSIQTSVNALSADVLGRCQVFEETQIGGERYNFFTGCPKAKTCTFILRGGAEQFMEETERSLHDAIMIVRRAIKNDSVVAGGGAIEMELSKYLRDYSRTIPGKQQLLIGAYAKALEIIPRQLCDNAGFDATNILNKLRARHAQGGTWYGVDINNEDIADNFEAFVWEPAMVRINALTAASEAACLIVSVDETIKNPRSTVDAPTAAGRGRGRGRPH
UniProt Q9Y2G2: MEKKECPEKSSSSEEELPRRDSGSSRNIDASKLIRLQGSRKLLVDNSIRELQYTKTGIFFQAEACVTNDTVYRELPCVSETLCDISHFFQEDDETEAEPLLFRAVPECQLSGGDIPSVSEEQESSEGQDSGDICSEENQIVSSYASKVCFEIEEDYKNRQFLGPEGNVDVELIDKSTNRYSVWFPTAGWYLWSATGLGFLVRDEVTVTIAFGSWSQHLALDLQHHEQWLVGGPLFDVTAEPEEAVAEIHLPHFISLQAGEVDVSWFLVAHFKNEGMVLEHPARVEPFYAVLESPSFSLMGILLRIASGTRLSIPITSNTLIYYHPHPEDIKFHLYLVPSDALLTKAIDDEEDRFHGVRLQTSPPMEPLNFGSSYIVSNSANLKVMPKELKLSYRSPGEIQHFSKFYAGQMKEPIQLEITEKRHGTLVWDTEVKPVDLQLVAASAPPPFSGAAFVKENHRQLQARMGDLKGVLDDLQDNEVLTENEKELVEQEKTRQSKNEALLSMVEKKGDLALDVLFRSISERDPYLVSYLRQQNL
UniProt O60826, whole entry, looked up: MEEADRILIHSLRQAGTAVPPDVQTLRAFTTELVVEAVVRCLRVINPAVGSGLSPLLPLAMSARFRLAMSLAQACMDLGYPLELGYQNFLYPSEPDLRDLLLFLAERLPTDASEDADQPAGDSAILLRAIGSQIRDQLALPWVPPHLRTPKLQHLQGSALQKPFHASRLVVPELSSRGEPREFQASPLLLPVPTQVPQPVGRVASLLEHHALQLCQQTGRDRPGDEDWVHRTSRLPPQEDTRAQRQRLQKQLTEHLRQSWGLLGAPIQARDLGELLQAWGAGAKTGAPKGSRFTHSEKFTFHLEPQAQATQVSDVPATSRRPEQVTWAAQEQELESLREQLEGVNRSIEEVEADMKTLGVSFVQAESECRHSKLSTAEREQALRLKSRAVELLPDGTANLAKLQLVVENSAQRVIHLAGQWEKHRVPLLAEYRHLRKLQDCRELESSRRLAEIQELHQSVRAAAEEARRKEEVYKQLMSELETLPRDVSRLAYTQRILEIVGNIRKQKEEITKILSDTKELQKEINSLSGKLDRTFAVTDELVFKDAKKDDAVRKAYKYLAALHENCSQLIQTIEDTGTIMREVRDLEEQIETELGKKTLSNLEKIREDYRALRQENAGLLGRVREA

What was measured:
Test in all cases: log2 fold change, soluble protein after heating vs DMSO (PISA); higher = thermal stabilisation; K562 lysate, 10 uM; active = over 0.2 and 3.5 SD of the protein, either way, in both replicates (recomputed)
[1] = compound: C#Cc1cccc(Nc2ncnc3cc(OCCOC)c(OCCOC)cc23)c1 [erlotinib]
How it was run: (§1)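 Log-two fold change in thermal stability relative to solvent controls is reported from duplicates. For each sample, crude K562 extract from dounce-homogenised pellets in PBS pH 7.4 with 1 mM MgCl2, at 1 mg/mL protein, was treated with 10 μM compound for 30 min. Aliquots heated for 3 min across 48°C-58°C were pooled, brought to 0.5% NP-40 at 4°C and cleared at 21,000xg for 90 min. The supernatant was quantified by TMTpro 16plex LC-MS/MS with channel sums equalised.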

[2] = compound: C/C(=N\NC(=O)C1=CC(=CC=C1)S(=O)(=O)N2CCOCC2)/C3=C(C=CC(=C3)Cl)O
How it was run: as §1

[3] = compound: C1=CC(=CC=C1C2=NC3=C(N2)C=C(C=C3)C(=O)N)OC4=CC=C(C=C4)Cl
How it was run: as §1

[4] = compound: C1=CC2=C(C=CC(=C2)/C=C\3/C(=O)NC(=NCC4=CC=CS4)S3)N=C1
How it was run: as §1

[5] = compound: C1=CC2=NC=CN=C2C=C1/C=C/3\C(=O)NC(=O)S3
How it was run: as §1

[6] = compound: C1=CC=C(C=C1)C2=NC(=C(N2)C3=CC=NC=C3)C4=CC(=C(C=C4)Cl)O
How it was run: as §1

[7] = compound: C1=CC=C2C(=C1)C3=NNC4=CC=CC(=C43)C2=O
How it was run: as §1

[8] = compound: C1CCN(C1)C(=O)NC2=CC=CC(=C2)NC3=NC=C(C(=N3)NCCC4=CN=CN4)Br
How it was run: as §1

[9] = compound: C1CN(CCC1(CC2=CC=C(C=C2)Cl)N)C3=NC=NC4=C3C=CN4
How it was run: as §1

[10] = compound: C1COCCN1CCN2C3=CC=CC=C3N=C2NC(=O)C4=CC(=CC=C4)[N+](=O)[O-] [IRAK-1-4 Inhibitor I]
How it was run: as §1

[11] = compound: C=CC(=O)N1CCC[C@@H](n2nc(-c3ccc(Oc4ccccc4)cc3)c3c(N)ncnc32)C1 [ibrutinib]
How it was run: as §1

[12] = compound: CC(=O)c1cnc2ccc(-c3cc(Cl)c(O)c(Cl)c3)nc2c1N[C@H]1CC[C@H](CN(C)C)CC1
How it was run: as §1

[13] = compound: CC(C)(C)Cn1c(N)nc2ccc(-c3[nH]c(C(C)(C)C)nc3-c3ccc(F)cc3)nc21 [ralimetinib]
How it was run: as §1

[14] = compound: CC(C)(O)CC(=O)NCCn1ccc2ncnc(Nc3ccc(Oc4cccc(C(F)(F)F)c4)c(Cl)c3)c21
How it was run: as §1

[15] = compound: CC(C)C1=C2N=C(C=C(N2N=C1)NCC3=CC=CC=C3)NCCCCCCN
How it was run: as §1

[16] = compound: CC1=C(C(CC(=O)N1)C2=CC=C(C=C2)C(F)(F)F)C(=O)NC3=C(C=C4C(=C3)C=NN4)F
How it was run: as §1

[17] = compound: CC1=C(C2=C(C=C1)C(=O)C3=CC=CC=C3N2CCCN)C
How it was run: as §1

[18] = compound: CC1=C(C=C(C=C1)NC(=O)C2=CC(=CC=C2)C(C)(C)C#N)NC3=CC4=C(C=C3)N=CN(C4=O)C
How it was run: as §1

[19] = compound: CC1=C(C=C(C=C1)NC(=O)C2=CC(=CC=C2)N(C)C)NC(=O)C3=CC=C(C=C3)O
How it was run: as §1

[20] = compound: CC1=CC=C(C=C1)SC2=C3C=C(SC3=CN=C2)C(=O)N
How it was run: as §1

Measured: log2 fold change

CCDC6 (UniProt Q16204)
inactive: [1] -0.008 | [2] -0.001 | [3] 0.045 | [4] -0.007 | [5] -0.03 | [6] -0.007 | [7] 0.018 | [8] -0.009 | [9] -0.026 | [10] -0.017 | [11] 0.033 | [12] 0.005 | [13] 0.007 | [14] 0.006 | [15] 0.013 | [16] -0.002 | [17] 0.005 | [18] 0.031 | [19] -0.007 | [20] -0.011

CCNB2 (UniProt O95067)
active: [12] 0.358
inactive: [1] 0.037 | [2] 0.038 | [3] 0.075 | [4] -0.061 | [5] -0.008 | [6] 0.008 | [7] -0.125 | [8] -0.02 | [9] 0.027 | [10] 0.033 | [11] -0.062 | [13] 0.028 | [14] -0.028 | [15] 0.023 | [16] -0.011 | [17] 0.017 | [18] 0.022 | [19] 0.037 | [20] -0.079

CCT5 (UniProt P48643)
inactive: [1] -0.03 | [2] 0.015 | [3] 0.006 | [4] -0.013 | [5] -0.009 | [6] -0.006 | [7] 0.025 | [8] 0.015 | [9] -0.016 | [10] -0.017 | [11] 0.006 | [12] 0.001 | [13] -0.002 | [14] 0.016 | [15] -0.016 | [16] -0.009 | [17] 0.01 | [18] -0.01 | [19] -0.01 | [20] 0.012

CASP6 (UniProt P55212)
inactive: [1] -0.006 | [2] 0.031 | [3] -0.006 | [4] -0.004 | [5] 0.006 | [6] 0 | [7] -0.005 | [8] 0.012 | [9] 0.017 | [10] 0.015 | [11] -0.029 | [12] 0.034 | [13] 0.074 | [14] 0.011 | [15] -0.042 | [16] -0.012 | [17] 0.005 | [18] -0.003 | [19] -0.02 | [20] -0.008

CCDC51 (UniProt Q96ER9)
inactive: [1] 0.03 | [2] -0.08 | [3] -0.047 | [4] -0.024 | [5] -0.005 | [6] 0.067 | [7] -0.07 | [8] 0.005 | [9] 0.029 | [10] -0.041 | [11] 0.056 | [12] 0.011 | [13] -0.012 | [14] 0.036 | [15] -0.011 | [16] 0.025 | [17] 0.011 | [18] -0.013 | [19] 0.033 | [20] 0.013

CCT7 (UniProt Q99832)
inactive: [1] -0.016 | [2] 0.042 | [3] 0.029 | [4] -0.013 | [5] -0.002 | [6] 0 | [7] 0.066 | [8] -0.001 | [9] 0.018 | [10] 0.013 | [11] -0.024 | [12] -0.001 | [13] -0.004 | [14] 0.016 | [15] 0.013 | [16] -0.022 | [17] -0.025 | [18] -0.007 | [19] -0.002 | [20] 0.008

CARD8 isoform 5 (UniProt Q9Y2G2)
inactive: [1] -0.062 | [2] 0.156 | [3] 0.039 | [4] -0.076 | [5] -0.104 | [6] 0.019 | [7] 0.008 | [8] 0.012 | [9] 0.063 | [10] 0.068 | [11] -0.024 | [12] -0.029 | [13] 0.007 | [14] -0.027 | [15] -0.012 | [16] 0.047 | [17] -0.028 | [18] -0.007 | [19] -0.019 | [20] -0.053

CCDC22 (UniProt O60826)
inactive: [1] -0.039 | [2] -0.007 | [3] 0.002 | [4] 0.02 | [5] -0.03 | [6] -0.017 | [7] -0.06 | [8] 0.007 | [9] 0.03 | [10] 0.011 | [11] 0.006 | [12] 0.033 | [13] -0.005 | [14] -0.045 | [15] -0.009 | [16] 0.005 | [17] 0.001 | [18] -0.01 | [19] 0.025 | [20] -0.027
